{"source": "paper PMC3487762", "key": {"[1]": {"molecular_target": "T1, GST-Rap1 #4 (360–520 a.a.) (S. pombe) (UniProt Q96TL7)", "T1 sequence": "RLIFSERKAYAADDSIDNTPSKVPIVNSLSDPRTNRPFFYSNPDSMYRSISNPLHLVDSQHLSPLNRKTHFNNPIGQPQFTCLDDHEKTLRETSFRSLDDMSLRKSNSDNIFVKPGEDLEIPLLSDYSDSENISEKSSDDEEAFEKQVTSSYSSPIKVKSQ", "test": "pull-down; GST-Rap1 proteins (~1 µg) bound to glutathione beads mixed with S. pombe cell extracts; washed with TNE buffer (40 mM Tris-HCl pH 7.5, 150 mM NaCl, 5 mM EDTA, 50 mM NaF, 20 mM ß-glycerophosphate); SDS-PAGE and western blotting with anti-Myc, anti-FLAG, anti-HA; only the target purified"}, "[2]": {"molecular_target": "T2, GST-Rap1 #5 (501–693 a.a.) (S. pombe) (UniProt Q96TL7)", "T2 sequence": "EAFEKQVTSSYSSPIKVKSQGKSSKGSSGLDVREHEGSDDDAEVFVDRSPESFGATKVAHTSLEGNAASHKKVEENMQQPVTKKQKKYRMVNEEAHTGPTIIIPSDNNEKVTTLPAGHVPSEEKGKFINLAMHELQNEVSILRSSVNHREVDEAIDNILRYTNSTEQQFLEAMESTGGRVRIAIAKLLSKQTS", "test": "pull-down; GST-Rap1 proteins (~1 µg) bound to glutathione beads mixed with S. pombe cell extracts; washed with TNE buffer (40 mM Tris-HCl pH 7.5, 150 mM NaCl, 5 mM EDTA, 50 mM NaF, 20 mM ß-glycerophosphate); SDS-PAGE and western blotting with anti-Myc, anti-FLAG, anti-HA; only the target purified"}, "[3]": {"molecular_target": "T3, Bqt1-Bqt2 complex (Gal4-BD-Bqt1 and Bqt2 from pBridge-bqt1+/bqt2+) (S. pombe) (UniProt Q92358+Q9US52)", "T3 sequence 1": "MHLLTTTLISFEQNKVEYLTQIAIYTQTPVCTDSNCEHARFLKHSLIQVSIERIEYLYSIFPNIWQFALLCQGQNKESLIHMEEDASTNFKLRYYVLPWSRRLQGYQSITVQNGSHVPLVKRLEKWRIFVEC", "T3 sequence 2": "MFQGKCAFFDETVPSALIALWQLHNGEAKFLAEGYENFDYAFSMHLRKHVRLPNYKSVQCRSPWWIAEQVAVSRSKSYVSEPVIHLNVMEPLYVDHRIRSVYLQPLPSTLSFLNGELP", "test": "yeast three-hybrid; Rap1 fragments in pACT2 (prey), pBridge-bqt1+/bqt2+ expressing Gal4-BD-Bqt1 and Bqt2 (bait); S. cerevisiae Y190; ß-galactosidase activity"}, "[4]": {"molecular_target": "T4, Poz1 in pGBKT7 (bait) (S. pombe) (UniProt O13852)", "T4 sequence": "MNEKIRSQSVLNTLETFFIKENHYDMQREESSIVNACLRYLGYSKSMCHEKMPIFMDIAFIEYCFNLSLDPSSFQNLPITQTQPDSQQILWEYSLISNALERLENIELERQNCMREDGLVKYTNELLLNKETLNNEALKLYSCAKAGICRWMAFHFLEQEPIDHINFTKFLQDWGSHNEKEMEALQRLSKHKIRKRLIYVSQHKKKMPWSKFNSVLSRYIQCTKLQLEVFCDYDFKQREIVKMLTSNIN", "test": "two-hybrid; Rap1 fragments in pACT2 (prey), entire ORF of poz1+ or taz1+ in pGBKT7 (bait); S. cerevisiae Y190; ß-galactosidase activity"}, "[5]": {"molecular_target": "T5, Taz1 in pGBKT7 (bait) (S. pombe) (UniProt P79005)", "T5 sequence": "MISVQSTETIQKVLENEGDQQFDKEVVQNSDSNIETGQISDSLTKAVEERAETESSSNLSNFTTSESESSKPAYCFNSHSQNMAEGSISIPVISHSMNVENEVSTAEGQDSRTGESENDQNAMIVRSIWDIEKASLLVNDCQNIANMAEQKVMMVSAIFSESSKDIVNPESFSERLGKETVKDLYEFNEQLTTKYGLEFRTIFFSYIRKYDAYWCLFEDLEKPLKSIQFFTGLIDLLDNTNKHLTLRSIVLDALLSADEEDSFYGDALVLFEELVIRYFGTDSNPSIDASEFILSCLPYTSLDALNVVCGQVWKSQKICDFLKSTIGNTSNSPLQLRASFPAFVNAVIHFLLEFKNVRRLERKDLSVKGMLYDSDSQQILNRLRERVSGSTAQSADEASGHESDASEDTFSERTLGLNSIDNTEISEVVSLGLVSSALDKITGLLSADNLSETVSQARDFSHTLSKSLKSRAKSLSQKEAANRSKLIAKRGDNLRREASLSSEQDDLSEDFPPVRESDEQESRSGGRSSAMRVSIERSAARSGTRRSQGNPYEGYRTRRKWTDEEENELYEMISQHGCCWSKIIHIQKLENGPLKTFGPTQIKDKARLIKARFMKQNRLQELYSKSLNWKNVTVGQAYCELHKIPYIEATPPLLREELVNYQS", "test": "two-hybrid; Rap1 fragments in pACT2 (prey), entire ORF of poz1+ or taz1+ in pGBKT7 (bait); S. cerevisiae Y190; ß-galactosidase activity"}}, "note": "Results are given in words; binding and its absence hold for the method and conditions named. For some assays here: In cells and extracts the contact can be indirect. Some results given as binding are weak or reduced against the parent protein; the word gives no strength. For some assays here: Sequences can lack the tags named with a protein.", "data": [{"binder": "Poz1-Flag (protein, UniProt O13852 1-249) MNEKIRSQSVLNTLETFFIKENHYDMQREESSIVNACLRYLGYSKSMCHEKMPIFMDIAFIEYCFNLSLDPSSFQNLPITQTQPDSQQILWEYSLISNALERLENIELERQNCMREDGLVKYTNELLLNKETLNNEALKLYSCAKAGICRWMAFHFLEQEPIDHINFTKFLQDWGSHNEKEMEALQRLSKHKIRKRLIYVSQHKKKMPWSKFNSVLSRYIQCTKLQLEVFCDYDFKQREIVKMLTSNIN", "values": [{"measurement": "binding", "setting": "[1]", "result": "binds"}]}, {"binder": "Taz1-HA (protein, UniProt P79005 1-663) MISVQSTETIQKVLENEGDQQFDKEVVQNSDSNIETGQISDSLTKAVEERAETESSSNLSNFTTSESESSKPAYCFNSHSQNMAEGSISIPVISHSMNVENEVSTAEGQDSRTGESENDQNAMIVRSIWDIEKASLLVNDCQNIANMAEQKVMMVSAIFSESSKDIVNPESFSERLGKETVKDLYEFNEQLTTKYGLEFRTIFFSYIRKYDAYWCLFEDLEKPLKSIQFFTGLIDLLDNTNKHLTLRSIVLDALLSADEEDSFYGDALVLFEELVIRYFGTDSNPSIDASEFILSCLPYTSLDALNVVCGQVWKSQKICDFLKSTIGNTSNSPLQLRASFPAFVNAVIHFLLEFKNVRRLERKDLSVKGMLYDSDSQQILNRLRERVSGSTAQSADEASGHESDASEDTFSERTLGLNSIDNTEISEVVSLGLVSSALDKITGLLSADNLSETVSQARDFSHTLSKSLKSRAKSLSQKEAANRSKLIAKRGDNLRREASLSSEQDDLSEDFPPVRESDEQESRSGGRSSAMRVSIERSAARSGTRRSQGNPYEGYRTRRKWTDEEENELYEMISQHGCCWSKIIHIQKLENGPLKTFGPTQIKDKARLIKARFMKQNRLQELYSKSLNWKNVTVGQAYCELHKIPYIEATPPLLREELVNYQS", "values": [{"measurement": "binding", "setting": "[2]", "result": "binds"}]}, {"binder": "Rap1 311–370 a.a. in pACT2 (prey) (domain or fragment, UniProt Q96TL7 311-370) VDPAILSDRETSAMLDETSDNEVADIDDQMIERKYLFSASEPNTVKSTNRLIFSERKAYA", "values": [{"measurement": "binding", "setting": "[3]", "result": "binds"}]}, {"binder": "Rap1 457–512 a.a. in pACT2 (prey) (domain or fragment, UniProt Q96TL7 457-512) LDDMSLRKSNSDNIFVKPGEDLEIPLLSDYSDSENISEKSSDDEEAFEKQVTSSYS", "values": [{"measurement": "binding", "setting": "[4]", "result": "binds"}]}, {"binder": "Rap1 RCT domain (639–693 a.a.) in pACT2 (prey) (domain or fragment, UniProt Q96TL7 639-693) VSILRSSVNHREVDEAIDNILRYTNSTEQQFLEAMESTGGRVRIAIAKLLSKQTS", "values": [{"measurement": "binding", "setting": "[5]", "result": "binds"}]}]}
